Some results were stated once for a whole list of compounds, not compound by compound.
biological target: recombinant human GSK-3β (Homo sapiens, UniProt P49841); test: Determination of Inhibition of GSK-3 Activity (phospho-glycogen synthase peptide-2 phosphorylation, [γ-33P]ATP, scintillation counting); assay type: biochemical; settings: group stated as IC50<100 nM; read-out: GSK-3 inhibitor activity values (IC50 values)
Description: The reaction was initiated by adding 25 μL of phospho-glycogen synthase peptide-2 substrate solution [containing 6 μM phospho-glycogen synthase peptide-2, 20 μM ATP, 16 mM MOPS buffer (pH 7.0), 0.2 mM EDTA, 20 mM magnesium acetate, 0.1 μ Ci[γ-^33P]ATP (relative activity: approximately 110 TBq/mmol)] to 5 μL of each test compound using 5% dimethylsulfoxide as a solvent, and further adding 20 μL of GSK-3β enzyme solution [containing 10 mU recombinant human GSK-3β, 20 mM MOPS buffer (pH 7.0), 1 mM EDTA, 0.1% polyoxyethylene lauryl ether(23 Lauryl Ether; Brij 35), 5% glycerol, and 0.1% β-mercaptoethanol. After 20 minutes at room temperature, the reaction was terminated by the addition of the equivalent amount of 200 mM phosphoric acid solution. 90 μL of the reaction product was spotted onto a multiscreen PH plate (manufactured by Millipore) and washed with 100 mM phosphoric acid solution. The plate was dried, and 30 μL of MicroScint-O (manufactured by Packard BioScience) was added thereto. To evaluate inhibitory activity, cpm was counted using a scintillation counter. Here, Phospho GS Peptide 2 is an amino acid peptide having the following sequence: […]P)-Glu-Asp-Glu-Glu-Glu.

The chains behind the UniProt entries cited, without tags or fusion partners. Where a name states a change or a piece, a line headed by the entry shows the natural chain unless it says otherwise.
UniProt P49841: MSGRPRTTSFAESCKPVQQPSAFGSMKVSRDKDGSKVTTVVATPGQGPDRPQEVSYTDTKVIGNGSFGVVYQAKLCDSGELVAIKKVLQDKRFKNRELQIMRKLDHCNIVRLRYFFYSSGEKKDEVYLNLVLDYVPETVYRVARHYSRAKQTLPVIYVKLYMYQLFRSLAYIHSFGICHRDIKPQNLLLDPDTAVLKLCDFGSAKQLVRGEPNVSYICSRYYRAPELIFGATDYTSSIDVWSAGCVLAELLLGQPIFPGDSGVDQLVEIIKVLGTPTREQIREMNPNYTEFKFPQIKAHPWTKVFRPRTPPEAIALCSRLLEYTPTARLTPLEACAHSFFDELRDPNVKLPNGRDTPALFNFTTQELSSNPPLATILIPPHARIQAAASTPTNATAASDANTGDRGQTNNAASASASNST

Structure (SMILES) | IC50
O=C(NCCn1c(C2CC2)c(-c2cccnc2)c2nc[nH]c(=O)c21)NCc1ccc(OC(F)(F)F)cc1 [Compound 2013] | < 100 nM
CCn1cc(-c2c(-c3sccc3Cl)n(CCNC(=O)CC(C)(C)C)c3c(=O)[nH]cnc23)cn1 [Compound 1293] | < 100 nM
O=C(NCCn1c(-c2sccc2Cl)c(-c2cccnc2)c2nc[nH]c(=O)c21)NCC1CCCCC1 [Compound 2014] | < 100 nM
CC(C)(C)CC(=O)NCCn1c(-c2sccc2Cl)c(-c2ccc[n+]([O-])c2)c2nc[nH]c(=O)c21 [Compound 1287] | < 100 nM
O=C(NCCn1c(C2CC2)c(-c2cccnc2)c2nc[nH]c(=O)c21)NCc1cccc(F)c1 [Compound 2031] | < 100 nM
Cn1cc(-c2c(-c3sccc3Cl)n(CCNC(=O)CC(C)(C)C)c3c(=O)[nH]cnc23)cn1 [Compound 1288] | < 100 nM
O=C(NCCn1c(-c2sccc2Cl)c(-c2cccnc2)c2nc[nH]c(=O)c21)NCc1cccnc1 [Compound 2012] | < 100 nM
O=C(NCCn1c(-c2sccc2Cl)c(-c2cccnc2)c2nc[nH]c(=O)c21)NCc1ccc(F)cc1 [Compound 2010] | < 100 nM
Cn1cc(-c2c(-c3sccc3Cl)n(CCNC(=O)NCc3cccc(F)c3)c3c(=O)[nH]cnc23)cn1 [Compound 2033] | < 100 nM
O=C(NCCn1c(-c2sccc2Cl)c(-c2cccnc2)c2nc[nH]c(=O)c21)NCc1cccc(F)c1 [Compound 2032] | < 100 nM
O=C(NCCn1c(C2CC2)c(-c2cccnc2)c2nc[nH]c(=O)c21)Nc1cccc(C(F)(F)F)c1 [Compound 2017] | < 100 nM

Source: patent US7557113B2, “Substituted pyrrolo[3,2-d]pyrimidine derivatives” (Teijin Pharma Limited, priority 2003, dated 2009)
